Measurements taken from paper PMC3979721, “Biochemical Properties of Ectoine Hydroxylases from Extremophiles and Their Wider Taxonomic Distribution among Microorganisms” (PLoS ONE, 2014).
No constants are given. Whether binding was seen depends on the method and setting. Some entries that bind do so weakly or less than the wild type.

Columns and labels:
[1] = target: Halomonas elongata EctD protein (ectoine hydroxylase) (Halomonas elongata) (UniProt E1VA04); experiment: SEC; data not shown; gel filtration as for the S. alaskensis protein (HiLoad 16/600 Superdex 200 pg, 20 mM TES-buffer containing 150 NaCl); both purified
[2] = target: Virgibacillus salexigens EctD protein (ectoine hydroxylase) (Virgibacillus salexigens) (UniProt Q2TDY4); experiment: as above

B1: Halomonas elongata EctD protein (ectoine hydroxylase) (enzyme, UniProt E1VA04 1-332)
chain: MSVQTSSNRPLPQANLHIATETPEADSRIRSAPRPGQDPYPTRLSEPLDLPWLNRREPVVKGEEADGPLSAAQLDTFERQGFIFEPDFLKGEELEALRHELNALLARDDFRGRDFAITEPQGNEIRSLFAVHYLSRVFSRLANDERLMGRARQILGGEPYVHQSRINYKPGFEGKGFNWHSDFETWHAEDGMPAMHAVSASIVLTDNHTFNGPLMLVPGSHRVFVPCLGETPEDHHRQSLKTQEFGVPSRQALRELIDRHGIEAPTGAAGGLLLFDCNTLHGSNANMSPDPRSNAFFVYNRRDNRCVEPYAASKRRPRFLAHEPDEAWSPDG
[1]
  binding: binds

B2: Virgibacillus salexigens EctD protein (ectoine hydroxylase) (enzyme, UniProt Q2TDY4 1-300)
chain: MEDLYPSRQNNQPKILKRKDPVIYTDRSKDNQAPITKEQLDSYEKNGFLQIKNFFSEDEVIDMQKAIFELQDSIKDVASDKVIREPESNDIRSIFHVHQDDNYFQDVANDKRILDIVRHLLGSDVYVHQSRINYKPGFKGKEFDWHSDFETWHVEDGMPRMRAISVSIALSDNYSFNGPLMLIPGSHNYFVSCVGETPDNNYKESLKKQKLGVPDEESLRELTRIGGGISVPTGKAGSVTLFESNTMHGSTSNITPYPRNNLFMVYNSVKNRLVEPFSGGEKRPEYIAVREKQPVYSAVN
[2]
  binding: binds
